Article doi:10.1101/2022.01.26.477835
No constants are given. Whether binding was seen depends on the method and setting. In cells and extracts the contact can be indirect. Here binding means that the protein was enriched with, or labelled near, the bait; the list need not be complete.

Protein sequences, listed by entry. Tags and fused reporters are not part of them. Lines headed by an entry give the natural chain unless they say otherwise; changes in a name come on top. Chains listed by the source or under a name are the forms on record and can include a tag or linker. Residues count along the entry.
UniProt Q8R455: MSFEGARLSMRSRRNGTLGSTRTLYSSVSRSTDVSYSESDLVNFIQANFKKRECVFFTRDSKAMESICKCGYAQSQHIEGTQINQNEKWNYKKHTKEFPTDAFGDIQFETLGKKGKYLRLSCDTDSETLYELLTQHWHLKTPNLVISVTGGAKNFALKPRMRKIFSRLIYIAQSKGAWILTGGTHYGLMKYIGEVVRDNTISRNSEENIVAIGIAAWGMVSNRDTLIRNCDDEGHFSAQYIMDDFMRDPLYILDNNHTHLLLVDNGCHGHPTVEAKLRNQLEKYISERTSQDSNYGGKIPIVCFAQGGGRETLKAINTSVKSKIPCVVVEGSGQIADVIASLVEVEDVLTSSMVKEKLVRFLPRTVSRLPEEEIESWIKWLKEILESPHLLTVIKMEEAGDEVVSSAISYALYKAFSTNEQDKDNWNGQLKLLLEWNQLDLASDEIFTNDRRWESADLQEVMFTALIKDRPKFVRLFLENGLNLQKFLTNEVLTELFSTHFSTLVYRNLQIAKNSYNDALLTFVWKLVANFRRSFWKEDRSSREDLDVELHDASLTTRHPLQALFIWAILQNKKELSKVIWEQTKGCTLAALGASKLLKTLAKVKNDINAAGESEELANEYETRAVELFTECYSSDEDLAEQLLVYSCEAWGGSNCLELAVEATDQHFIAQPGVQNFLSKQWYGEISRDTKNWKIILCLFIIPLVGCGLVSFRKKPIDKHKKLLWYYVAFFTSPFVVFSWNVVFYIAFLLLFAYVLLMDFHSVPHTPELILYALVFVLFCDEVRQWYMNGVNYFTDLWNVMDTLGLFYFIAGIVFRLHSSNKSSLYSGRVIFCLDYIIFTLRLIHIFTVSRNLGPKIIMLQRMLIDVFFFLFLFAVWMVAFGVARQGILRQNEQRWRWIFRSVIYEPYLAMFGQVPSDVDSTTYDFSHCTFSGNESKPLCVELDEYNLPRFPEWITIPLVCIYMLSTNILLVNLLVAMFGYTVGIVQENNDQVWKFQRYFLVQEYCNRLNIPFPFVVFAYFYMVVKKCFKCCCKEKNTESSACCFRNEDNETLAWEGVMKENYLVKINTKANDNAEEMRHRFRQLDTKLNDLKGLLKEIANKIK
GST-tagged C-terminus of TRPM8 (GST-M8C): residues 980-1104 of Q8R455
UniProt P63104: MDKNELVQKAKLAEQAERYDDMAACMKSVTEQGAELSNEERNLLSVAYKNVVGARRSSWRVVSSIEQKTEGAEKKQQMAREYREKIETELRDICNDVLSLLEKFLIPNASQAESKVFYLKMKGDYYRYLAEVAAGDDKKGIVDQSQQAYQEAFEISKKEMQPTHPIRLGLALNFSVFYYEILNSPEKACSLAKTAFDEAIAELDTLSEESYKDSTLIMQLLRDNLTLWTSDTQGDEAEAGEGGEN
UniProt P51451: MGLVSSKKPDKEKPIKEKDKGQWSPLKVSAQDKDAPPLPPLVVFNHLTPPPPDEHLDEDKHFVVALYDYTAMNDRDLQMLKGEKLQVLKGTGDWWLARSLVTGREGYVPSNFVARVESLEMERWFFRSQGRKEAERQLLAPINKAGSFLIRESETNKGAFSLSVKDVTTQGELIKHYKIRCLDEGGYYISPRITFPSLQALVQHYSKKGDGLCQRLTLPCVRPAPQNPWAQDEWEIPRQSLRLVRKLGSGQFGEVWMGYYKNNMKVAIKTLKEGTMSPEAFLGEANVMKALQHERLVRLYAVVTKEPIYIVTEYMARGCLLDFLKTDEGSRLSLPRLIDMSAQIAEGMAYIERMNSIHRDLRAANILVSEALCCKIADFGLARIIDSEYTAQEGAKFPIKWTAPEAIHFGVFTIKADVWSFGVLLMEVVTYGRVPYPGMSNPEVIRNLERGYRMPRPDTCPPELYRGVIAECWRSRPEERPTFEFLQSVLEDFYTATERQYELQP
UniProt P06239: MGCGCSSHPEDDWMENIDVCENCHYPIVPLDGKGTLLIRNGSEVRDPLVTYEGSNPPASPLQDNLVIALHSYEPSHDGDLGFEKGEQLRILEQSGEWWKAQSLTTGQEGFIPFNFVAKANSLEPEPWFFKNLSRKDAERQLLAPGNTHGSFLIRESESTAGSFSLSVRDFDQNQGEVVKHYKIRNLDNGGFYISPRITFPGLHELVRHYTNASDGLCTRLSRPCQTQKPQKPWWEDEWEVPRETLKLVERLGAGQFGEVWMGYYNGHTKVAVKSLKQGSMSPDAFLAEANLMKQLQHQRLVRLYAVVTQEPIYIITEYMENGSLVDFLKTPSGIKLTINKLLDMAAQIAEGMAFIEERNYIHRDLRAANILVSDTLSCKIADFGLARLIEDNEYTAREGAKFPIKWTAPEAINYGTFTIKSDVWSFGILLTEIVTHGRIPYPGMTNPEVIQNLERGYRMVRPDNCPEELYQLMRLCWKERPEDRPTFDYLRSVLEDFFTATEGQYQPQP

Columns and labels:
[1] = molecular target: GST-tagged C-terminus of TRPM8 (GST-M8C) (rat) (UniProt Q8R455); test: affinity purification with mass spectrometry
[2] = molecular target: Flag-tagged full-length TRPM8 (Flag-TRPM8) (rat) (UniProt Q8R455); test: affinity purification with mass spectrometry

binding [1] | binding [2] | Substance
binds | – | 14-3-3ζ (endogenous) (from UniProt P63104 1-245)
– | binds | BLK (endogenous) (from UniProt P51451 1-505) (enzyme)
– | binds | LCK (endogenous) (from UniProt P06239 1-509) (enzyme)
